# The other results are listed elsewhere or left out.
# Chains of the proteins cited; added tags and fusions are not shown. Lines headed by an entry give the natural chain unless they say otherwise; changes in a name come on top.
# UniProt Q9Y3Q3: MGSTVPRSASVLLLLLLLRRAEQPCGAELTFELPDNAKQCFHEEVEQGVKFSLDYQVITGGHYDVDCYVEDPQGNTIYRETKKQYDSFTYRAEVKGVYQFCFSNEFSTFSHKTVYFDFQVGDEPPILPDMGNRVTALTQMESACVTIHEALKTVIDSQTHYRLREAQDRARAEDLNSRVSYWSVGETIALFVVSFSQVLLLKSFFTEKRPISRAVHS
# UniProt Q9HD45: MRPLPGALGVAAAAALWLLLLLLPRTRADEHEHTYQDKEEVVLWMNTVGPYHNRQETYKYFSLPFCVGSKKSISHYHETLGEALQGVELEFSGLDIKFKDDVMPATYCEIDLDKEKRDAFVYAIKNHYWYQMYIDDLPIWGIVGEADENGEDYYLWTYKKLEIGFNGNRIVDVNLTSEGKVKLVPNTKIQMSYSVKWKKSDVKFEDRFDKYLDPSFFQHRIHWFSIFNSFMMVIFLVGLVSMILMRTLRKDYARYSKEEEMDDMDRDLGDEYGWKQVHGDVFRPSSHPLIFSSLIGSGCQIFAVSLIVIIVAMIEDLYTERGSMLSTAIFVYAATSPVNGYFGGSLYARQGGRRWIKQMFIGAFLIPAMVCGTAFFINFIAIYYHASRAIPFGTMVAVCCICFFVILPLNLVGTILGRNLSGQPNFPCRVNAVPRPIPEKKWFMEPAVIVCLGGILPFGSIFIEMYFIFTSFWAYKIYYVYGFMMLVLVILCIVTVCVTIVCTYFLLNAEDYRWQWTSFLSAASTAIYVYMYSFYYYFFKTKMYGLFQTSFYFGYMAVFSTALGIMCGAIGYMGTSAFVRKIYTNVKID
# UniProt Q15363: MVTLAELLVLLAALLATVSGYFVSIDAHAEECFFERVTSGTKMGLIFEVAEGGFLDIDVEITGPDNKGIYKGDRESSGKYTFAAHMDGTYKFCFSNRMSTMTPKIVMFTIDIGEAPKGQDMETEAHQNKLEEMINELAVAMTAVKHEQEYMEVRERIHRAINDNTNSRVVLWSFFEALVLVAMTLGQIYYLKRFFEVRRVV
# UniProt Q6PI78: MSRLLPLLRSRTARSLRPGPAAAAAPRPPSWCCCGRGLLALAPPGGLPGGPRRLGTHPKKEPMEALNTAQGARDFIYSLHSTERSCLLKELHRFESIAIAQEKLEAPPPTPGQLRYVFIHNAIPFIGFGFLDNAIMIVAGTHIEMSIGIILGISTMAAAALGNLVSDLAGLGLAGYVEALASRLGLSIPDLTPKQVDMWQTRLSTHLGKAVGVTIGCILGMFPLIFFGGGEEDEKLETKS
# UniProt Q99805: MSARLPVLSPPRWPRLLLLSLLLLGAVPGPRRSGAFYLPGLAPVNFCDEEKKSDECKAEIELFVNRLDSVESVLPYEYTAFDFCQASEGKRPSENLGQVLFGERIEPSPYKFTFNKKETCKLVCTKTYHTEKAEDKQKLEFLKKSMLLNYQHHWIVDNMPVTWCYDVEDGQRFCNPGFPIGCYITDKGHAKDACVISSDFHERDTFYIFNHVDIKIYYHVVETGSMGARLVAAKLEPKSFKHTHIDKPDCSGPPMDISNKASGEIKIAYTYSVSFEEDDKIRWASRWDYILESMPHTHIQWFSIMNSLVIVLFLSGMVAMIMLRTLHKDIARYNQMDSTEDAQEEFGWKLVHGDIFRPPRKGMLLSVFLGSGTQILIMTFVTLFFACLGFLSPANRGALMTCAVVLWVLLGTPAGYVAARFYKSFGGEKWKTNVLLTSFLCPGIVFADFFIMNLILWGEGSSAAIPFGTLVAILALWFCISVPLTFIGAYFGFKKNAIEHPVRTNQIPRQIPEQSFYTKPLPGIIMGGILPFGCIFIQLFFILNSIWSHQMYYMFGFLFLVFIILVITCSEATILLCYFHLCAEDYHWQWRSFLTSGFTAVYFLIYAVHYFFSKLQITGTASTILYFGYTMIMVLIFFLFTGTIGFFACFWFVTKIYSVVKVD
# UniProt Q9Y2S6, whole entry, looked up: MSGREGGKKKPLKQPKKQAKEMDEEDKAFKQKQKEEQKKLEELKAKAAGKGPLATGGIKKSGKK
# UniProt Q96K49: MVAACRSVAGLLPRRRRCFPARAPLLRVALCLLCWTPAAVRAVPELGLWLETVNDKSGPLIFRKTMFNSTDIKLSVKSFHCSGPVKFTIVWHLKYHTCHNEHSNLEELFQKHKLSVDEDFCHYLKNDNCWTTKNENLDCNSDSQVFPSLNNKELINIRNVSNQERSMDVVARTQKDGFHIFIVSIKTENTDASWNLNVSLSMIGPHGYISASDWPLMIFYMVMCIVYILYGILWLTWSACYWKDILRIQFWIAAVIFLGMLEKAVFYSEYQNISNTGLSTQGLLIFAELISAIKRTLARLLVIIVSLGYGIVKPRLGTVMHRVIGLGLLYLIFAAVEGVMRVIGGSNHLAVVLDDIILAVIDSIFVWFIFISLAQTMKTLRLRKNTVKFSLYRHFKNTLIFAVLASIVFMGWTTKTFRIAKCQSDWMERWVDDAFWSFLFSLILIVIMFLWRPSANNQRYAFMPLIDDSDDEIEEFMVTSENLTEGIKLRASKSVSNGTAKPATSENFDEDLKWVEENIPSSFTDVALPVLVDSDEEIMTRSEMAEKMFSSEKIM
# UniProt Q9NWH2: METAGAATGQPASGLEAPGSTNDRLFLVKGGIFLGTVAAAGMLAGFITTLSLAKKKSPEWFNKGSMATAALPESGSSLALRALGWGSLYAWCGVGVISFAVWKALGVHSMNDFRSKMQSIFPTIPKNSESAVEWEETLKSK
# UniProt Q9Y320, whole entry, looked up: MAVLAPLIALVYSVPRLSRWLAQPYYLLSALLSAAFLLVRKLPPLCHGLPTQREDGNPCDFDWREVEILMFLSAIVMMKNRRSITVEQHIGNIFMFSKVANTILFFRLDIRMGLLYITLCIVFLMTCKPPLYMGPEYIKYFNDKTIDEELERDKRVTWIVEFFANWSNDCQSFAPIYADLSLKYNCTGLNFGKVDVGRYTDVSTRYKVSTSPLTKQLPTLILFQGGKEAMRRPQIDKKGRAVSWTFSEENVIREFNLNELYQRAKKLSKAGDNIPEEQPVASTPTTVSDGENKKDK
# UniProt Q9H3N1: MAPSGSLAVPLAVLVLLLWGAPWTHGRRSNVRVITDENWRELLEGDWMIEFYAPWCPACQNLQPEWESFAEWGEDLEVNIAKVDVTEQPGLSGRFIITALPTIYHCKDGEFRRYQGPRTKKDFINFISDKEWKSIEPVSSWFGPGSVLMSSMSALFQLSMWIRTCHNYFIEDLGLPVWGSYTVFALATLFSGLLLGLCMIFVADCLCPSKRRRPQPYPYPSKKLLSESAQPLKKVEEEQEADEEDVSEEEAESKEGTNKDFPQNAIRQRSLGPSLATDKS
# UniProt Q8N511: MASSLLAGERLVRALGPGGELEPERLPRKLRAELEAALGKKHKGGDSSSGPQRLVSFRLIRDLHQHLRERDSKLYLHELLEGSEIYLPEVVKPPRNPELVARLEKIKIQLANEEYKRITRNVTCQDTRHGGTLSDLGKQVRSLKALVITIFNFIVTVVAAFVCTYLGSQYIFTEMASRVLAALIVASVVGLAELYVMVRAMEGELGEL
# UniProt Q9NVV0: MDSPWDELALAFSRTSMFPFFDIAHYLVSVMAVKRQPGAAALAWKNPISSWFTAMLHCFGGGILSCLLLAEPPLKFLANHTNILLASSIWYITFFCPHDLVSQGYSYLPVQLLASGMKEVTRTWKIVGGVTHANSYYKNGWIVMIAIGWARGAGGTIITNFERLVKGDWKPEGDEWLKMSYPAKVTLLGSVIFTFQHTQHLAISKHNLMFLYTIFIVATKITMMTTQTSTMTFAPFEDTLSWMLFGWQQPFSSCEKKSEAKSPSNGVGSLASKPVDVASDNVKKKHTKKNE
# UniProt Q96HV5: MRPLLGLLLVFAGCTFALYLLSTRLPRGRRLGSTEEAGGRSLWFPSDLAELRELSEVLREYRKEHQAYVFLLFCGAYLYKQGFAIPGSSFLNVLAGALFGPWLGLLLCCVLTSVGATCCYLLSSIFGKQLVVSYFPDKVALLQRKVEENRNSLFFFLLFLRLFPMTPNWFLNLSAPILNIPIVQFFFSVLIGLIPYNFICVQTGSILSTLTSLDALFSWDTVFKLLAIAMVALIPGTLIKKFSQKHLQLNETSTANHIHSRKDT
# UniProt P42166: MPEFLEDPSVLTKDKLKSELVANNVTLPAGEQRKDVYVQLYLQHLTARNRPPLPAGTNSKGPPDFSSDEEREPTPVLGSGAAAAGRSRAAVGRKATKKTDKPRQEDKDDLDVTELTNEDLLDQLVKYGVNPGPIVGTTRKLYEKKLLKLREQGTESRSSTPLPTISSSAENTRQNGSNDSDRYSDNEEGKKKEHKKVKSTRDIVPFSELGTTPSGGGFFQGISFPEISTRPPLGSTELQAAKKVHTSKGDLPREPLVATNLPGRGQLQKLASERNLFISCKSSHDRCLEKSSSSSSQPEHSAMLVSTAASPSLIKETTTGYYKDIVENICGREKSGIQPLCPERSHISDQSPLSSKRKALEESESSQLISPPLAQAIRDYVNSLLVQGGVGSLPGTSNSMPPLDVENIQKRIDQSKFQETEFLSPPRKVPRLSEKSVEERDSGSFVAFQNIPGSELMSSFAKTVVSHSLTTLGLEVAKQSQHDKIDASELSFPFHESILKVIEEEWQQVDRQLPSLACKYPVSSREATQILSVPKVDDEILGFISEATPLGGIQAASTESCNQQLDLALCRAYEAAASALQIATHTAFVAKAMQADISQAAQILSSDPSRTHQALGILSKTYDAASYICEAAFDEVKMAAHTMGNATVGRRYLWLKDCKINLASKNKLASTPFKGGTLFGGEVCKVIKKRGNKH
# UniProt P49755: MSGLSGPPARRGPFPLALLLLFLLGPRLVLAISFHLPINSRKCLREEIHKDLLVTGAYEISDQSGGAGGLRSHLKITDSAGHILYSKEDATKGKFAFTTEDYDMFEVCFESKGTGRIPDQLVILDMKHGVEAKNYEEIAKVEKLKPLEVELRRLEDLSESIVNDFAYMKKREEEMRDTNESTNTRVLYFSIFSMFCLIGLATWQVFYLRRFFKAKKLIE
# UniProt P82094: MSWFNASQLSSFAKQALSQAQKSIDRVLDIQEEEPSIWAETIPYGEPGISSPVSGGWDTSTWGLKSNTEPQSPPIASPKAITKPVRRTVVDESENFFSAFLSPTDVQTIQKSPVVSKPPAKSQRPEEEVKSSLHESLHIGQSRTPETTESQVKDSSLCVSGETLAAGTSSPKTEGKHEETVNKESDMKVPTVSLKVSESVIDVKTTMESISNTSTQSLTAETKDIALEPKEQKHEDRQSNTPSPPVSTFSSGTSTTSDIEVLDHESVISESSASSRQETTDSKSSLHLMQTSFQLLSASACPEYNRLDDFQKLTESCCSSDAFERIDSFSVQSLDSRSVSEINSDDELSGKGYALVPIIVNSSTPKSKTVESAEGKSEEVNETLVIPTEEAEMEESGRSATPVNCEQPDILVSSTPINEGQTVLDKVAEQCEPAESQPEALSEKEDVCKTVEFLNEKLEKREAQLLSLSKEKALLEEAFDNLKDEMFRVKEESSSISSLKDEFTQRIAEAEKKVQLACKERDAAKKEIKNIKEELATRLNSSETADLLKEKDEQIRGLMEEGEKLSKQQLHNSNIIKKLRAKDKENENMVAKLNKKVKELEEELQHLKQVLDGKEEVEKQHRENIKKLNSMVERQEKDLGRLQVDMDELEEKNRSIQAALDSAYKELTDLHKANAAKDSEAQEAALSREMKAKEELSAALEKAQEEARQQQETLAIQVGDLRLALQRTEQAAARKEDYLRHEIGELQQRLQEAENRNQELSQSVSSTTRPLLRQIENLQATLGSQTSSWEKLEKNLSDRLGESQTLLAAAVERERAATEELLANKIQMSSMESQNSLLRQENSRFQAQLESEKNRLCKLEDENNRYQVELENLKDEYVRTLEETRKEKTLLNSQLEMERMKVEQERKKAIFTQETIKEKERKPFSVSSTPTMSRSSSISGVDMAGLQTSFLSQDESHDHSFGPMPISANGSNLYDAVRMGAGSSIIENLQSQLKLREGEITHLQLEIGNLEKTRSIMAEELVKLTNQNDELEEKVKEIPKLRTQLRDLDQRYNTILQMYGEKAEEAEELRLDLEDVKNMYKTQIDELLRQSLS
# UniProt Q9BUB7: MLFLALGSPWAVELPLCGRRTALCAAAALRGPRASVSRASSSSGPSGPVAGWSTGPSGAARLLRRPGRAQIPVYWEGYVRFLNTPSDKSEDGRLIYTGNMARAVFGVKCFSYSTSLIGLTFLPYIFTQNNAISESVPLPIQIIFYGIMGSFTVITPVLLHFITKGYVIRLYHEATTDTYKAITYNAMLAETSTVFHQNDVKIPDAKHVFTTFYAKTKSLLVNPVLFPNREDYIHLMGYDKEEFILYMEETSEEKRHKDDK
# UniProt Q9Y3A6: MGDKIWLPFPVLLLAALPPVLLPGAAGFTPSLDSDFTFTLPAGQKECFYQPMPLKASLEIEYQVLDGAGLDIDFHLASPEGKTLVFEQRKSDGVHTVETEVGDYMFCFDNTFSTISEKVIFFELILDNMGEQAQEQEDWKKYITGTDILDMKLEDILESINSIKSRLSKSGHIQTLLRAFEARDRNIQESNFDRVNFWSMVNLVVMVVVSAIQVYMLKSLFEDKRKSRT
# Columns and labels:
# Assay in all cases: log2 fold change, soluble protein after heating vs DMSO (PISA); higher = thermal stabilisation; K562 cells, 10 uM, 30 min; active = over 0.2 and 3.5 SD of the protein, either way, in both replicates (recomputed)
# [1] = compound: CC[C@@H]1C(=O)N(C)c2cnc(Nc3ccc(C(=O)NC4CCN(C)CC4)cc3OC)nc2N1C1CCCC1
# Summary of the method: (§1)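 Values are thermal stability changes relative to control samples and are taken from duplicates. They are stated as log2 fold changes. Before quantification by TMTpro 16plex LC-MS/MS with equalised channel sums, K562 cells at 2×10^6 cells/mL were treated with 10 μM compound for 30 min, heated in aliquots for 3 min across 48°C-58°C, pooled, extracted in PBS with 0.5% NP-40 at 4°C, and centrifuged at 21,000xg for 90 min to give the soluble supernatant.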
# volasertib = compound: CC[C@@H]1C(=O)N(C)c2cnc(Nc3ccc(C(=O)N[C@H]4CC[C@H](N5CCN(CC6CC6)CC5)CC4)cc3OC)nc2N1C(C)C [volasertib]
# Summary of the method: as §1
# [2] = compound: CC[C@H](C)N1C=C(C2=C(C=C(C=C21)C3=CN=C(C=C3)N4CCNCC4)C(=O)NCC5=C(C=C(NC5=O)C)C)C
# Summary of the method: as §1
# epoxomicin = compound: CC[C@H](C)[C@@H](C(=O)N[C@@H]([C@@H](C)O)C(=O)N[C@@H](CC(C)C)C(=O)[C@]1(CO1)C)NC(=O)[C@H]([C@@H](C)CC)N(C)C(=O)C [epoxomicin]
# Summary of the method: as §1
# [3] = compound: CCn1c(C(=O)N(C2CC2)C2CC2)cc2c3c(ncn3C)c(Nc3cc(C)n(C)n3)nc21
# Summary of the method: as §1
# [4] = compound: CCn1cc(-c2ccnc3[nH]c(-c4cccc(CN(C)C)c4)cc23)c(-c2ccc(NC(=O)N(C)C)cc2)n1
# Summary of the method: as §1
# [5] = compound: CN(C)CC(=O)Nc1ccc2[nH]c(=O)c3ccccc3c2c1
# Summary of the method: as §1
# rosiglitazone = compound: CN(CCOC1=CC=C(C=C1)C[C@H]2C(=O)NC(=O)S2)C3=CC=CC=N3 (racemic) [rosiglitazone]
# Summary of the method: as §1
# [6] = compound: CN1C2=C(C3=C1C(=O)N(N=C3)CC4=CC(=CC=C4)N)SC(=C2)S(=O)C
# Summary of the method: as §1
# [7] = compound: CN1CCC(CNc2ccc3ncc(-c4cccc(OC(F)(F)F)c4)n3n2)CC1
# Summary of the method: as §1
Target,log2 fold change [1],log2 fold change (volasertib),log2 fold change [2],log2 fold change (epoxomicin),log2 fold change [3],log2 fold change [4],log2 fold change [5],log2 fold change (rosiglitazone),log2 fold change [6],log2 fold change [7]
TMED3 (UniProt Q9Y3Q3),inactive: 0.031,inactive: -0.13,inactive: -0.086,inactive: 0.108,inactive: 0.015,inactive: -0.074,inactive: 0.005,inactive: -0.085,inactive: -0.041,inactive: -0.054
TM9SF3 (UniProt Q9HD45),inactive: 0.026,inactive: -0.052,inactive: -0.015,inactive: 0.02,inactive: -0.003,inactive: -0.037,inactive: 0.007,inactive: 0.036,inactive: -0.129,inactive: -0.012
TMEM62 (UniProt Q0P6H9),inactive: 0.047,inactive: 0.031,inactive: -0.04,inactive: 0.059,inactive: 0.032,inactive: 0.015,inactive: -0.048,inactive: 0.033,inactive: -0.033,inactive: -0.002
TMEM63A (UniProt O94886),inactive: -0.041,inactive: 0.115,inactive: -0.064,inactive: -0.023,inactive: 0.036,inactive: 0.052,inactive: -0.031,inactive: -0.073,inactive: -0.024,inactive: -0.062
TMEM185B (UniProt Q9H7F4),inactive: -0.094,inactive: -0.027,inactive: -0.061,inactive: -0.019,inactive: -0.055,inactive: 0.063,inactive: 0.018,inactive: 0.007,inactive: 0.067,inactive: -0.192
TMED2 (UniProt Q15363),inactive: 0.019,inactive: -0.005,inactive: -0.014,inactive: 0.031,inactive: 0.066,inactive: 0.025,inactive: -0.008,inactive: 0.011,inactive: -0.006,inactive: -0.039
TMEM230 isoform 2 (UniProt Q96A57),inactive: 0.017,inactive: 0.013,inactive: -0.005,inactive: 0.03,inactive: 0.085,inactive: -0.045,inactive: -0.042,inactive: 0.046,inactive: 0.035,inactive: 0.025
TMEM65 (UniProt Q6PI78),inactive: 0.16,inactive: -0.03,inactive: 0.013,inactive: -0.001,inactive: -0.035,inactive: -0.001,inactive: 0.084,inactive: 0.016,inactive: 0.002,inactive: 0.013
TNFAIP1 (UniProt Q13829),inactive: 0.003,inactive: 0.023,inactive: 0.034,inactive: 0.022,inactive: 0.04,,inactive: 0.136,inactive: 0,inactive: -0.002,
TM9SF2 (UniProt Q99805),active: -0.57,active: -0.621,inactive: -0.008,inactive: -0.034,,inactive: -0.017,inactive: 0.018,,inactive: -0.01,inactive: -0.182
TMA7 (UniProt Q9Y2S6),inactive: -0.024,inactive: 0.067,inactive: -0.069,inactive: 0.001,inactive: 0.034,inactive: 0.048,inactive: -0.034,inactive: -0.02,inactive: -0.071,inactive: 0.002
TMEM87B (UniProt Q96K49),inactive: -0.088,inactive: -0.148,inactive: 0.092,inactive: 0.018,,inactive: -0.103,inactive: -0.016,,inactive: -0.143,active: -0.436
TMEM242 (UniProt Q9NWH2),inactive: 0.052,inactive: 0.05,inactive: -0.066,inactive: 0.11,inactive: 0.025,inactive: 0.028,inactive: 0.089,inactive: -0.061,inactive: -0.079,inactive: 0.031
TMX2 (UniProt Q9Y320),inactive: 0.04,inactive: -0.006,inactive: 0.007,inactive: 0.066,inactive: 0.025,inactive: -0.066,inactive: 0.037,inactive: 0.052,inactive: -0.079,inactive: 0.025
TMEM263 (UniProt Q8WUH6),active: -0.462,inactive: -0.5,inactive: -0.03,inactive: 0.005,,inactive: -0.105,inactive: 0.024,,inactive: -0.057,active: -1.32
TMEM41B (UniProt Q5BJD5),inactive: -0.039,inactive: -0.12,inactive: -0.061,inactive: -0.197,inactive: 0,inactive: -0.043,inactive: -0.034,inactive: 0.042,inactive: 0.041,inactive: 0.05

Target,log2 fold change [1],log2 fold change (volasertib),log2 fold change [2],log2 fold change (epoxomicin),log2 fold change [3],log2 fold change [4],log2 fold change [5],log2 fold change (rosiglitazone),log2 fold change [6],log2 fold change [7]
TMX1 (UniProt Q9H3N1),inactive: -0.02,inactive: -0.02,inactive: -0.004,inactive: 0.004,inactive: 0.005,inactive: -0.01,inactive: -0.012,inactive: -0.003,inactive: -0.014,inactive: 0.058
TMEM199 (UniProt Q8N511),inactive: -0.094,inactive: 0.014,inactive: -0.018,inactive: -0.001,inactive: -0.019,inactive: 0.026,inactive: -0.002,inactive: 0.004,inactive: -0.048,inactive: 0.028
TMEM38B (UniProt Q9NVV0),inactive: 0.025,inactive: 0.07,inactive: -0.092,inactive: 0,inactive: 0,inactive: -0.024,inactive: -0.003,inactive: 0.024,inactive: -0.002,inactive: 0.041
TMEM123 (UniProt Q8N131),inactive: -0.068,inactive: 0.02,inactive: -0.08,inactive: -0.031,inactive: 0.007,,inactive: -0.047,inactive: -0.034,inactive: -0.013,
TMEM41A (UniProt Q96HV5),inactive: 0.036,inactive: 0.035,inactive: -0.05,inactive: -0.055,,inactive: 0.165,inactive: -0.049,,inactive: 0,inactive: 0.01
TMPO (UniProt P42166),inactive: -0.078,inactive: -0.11,inactive: 0.034,inactive: 0.05,inactive: -0.068,inactive: 0.028,inactive: -0.025,inactive: 0,inactive: -0.017,inactive: -0.054
TMCO1 (UniProt Q9UM00),inactive: -0.168,inactive: -0.118,inactive: -0.024,inactive: -0.027,inactive: 0.015,inactive: 0.032,inactive: 0,inactive: 0.024,inactive: -0.024,inactive: 0.004
TMX3 (UniProt Q96JJ7),inactive: 0.031,inactive: -0.025,inactive: 0.013,inactive: 0.014,inactive: 0.01,inactive: 0.004,inactive: -0.011,inactive: -0.003,inactive: 0.017,inactive: 0.048
TMEM245 (UniProt Q9H330),inactive: 0.065,inactive: -0.045,inactive: -0.062,inactive: -0.052,inactive: -0.004,inactive: 0.015,inactive: 0.031,inactive: 0,inactive: -0.057,inactive: 0.027
TMPPE (UniProt Q6ZT21),inactive: 0.057,inactive: -0.002,inactive: -0.023,inactive: -0.003,inactive: 0.033,inactive: -0.074,inactive: 0.097,inactive: 0.039,inactive: -0.112,inactive: 0.022
TMED10 (UniProt P49755),inactive: -0.059,inactive: 0.046,inactive: 0.006,inactive: 0.184,inactive: 0.022,inactive: 0.029,inactive: 0.034,inactive: 0.009,inactive: -0.071,inactive: -0.059
TMF1 (UniProt P82094),inactive: 0.05,inactive: -0.017,inactive: -0.047,inactive: 0.02,inactive: 0.013,inactive: -0.01,inactive: -0.018,inactive: -0.015,inactive: 0.003,inactive: 0.06
TMEM70 (UniProt Q9BUB7),inactive: 0.005,inactive: 0.064,inactive: -0.017,inactive: 0.001,active: 0.257,inactive: -0.055,inactive: 0.001,,inactive: -0.048,active: -0.288
TMED5 (UniProt Q9Y3A6),inactive: 0.025,inactive: 0.133,inactive: -0.004,inactive: -0.029,inactive: 0,inactive: -0.055,inactive: -0.081,inactive: 0.038,inactive: -0.089,inactive: -0.058
TMEM109 (UniProt Q9BVC6),inactive: -0.03,inactive: 0.064,inactive: -0.051,inactive: -0.001,inactive: -0.001,inactive: 0.02,inactive: -0.042,inactive: 0.009,inactive: -0.036,inactive: 0.039

# Already shown: entries from further up.
Target,log2 fold change [1],log2 fold change (volasertib),log2 fold change [2],log2 fold change (epoxomicin),log2 fold change [3],log2 fold change [4],log2 fold change [5],log2 fold change (rosiglitazone),log2 fold change [6],log2 fold change [7]
TMEM38B (UniProt Q9NVV0),inactive: 0.025,inactive: 0.07,inactive: -0.092,inactive: 0,inactive: 0,inactive: -0.024,inactive: -0.003,inactive: 0.024,inactive: -0.002,inactive: 0.041
TMEM123 (UniProt Q8N131),inactive: -0.068,inactive: 0.02,inactive: -0.08,inactive: -0.031,inactive: 0.007,,inactive: -0.047,inactive: -0.034,inactive: -0.013,
TMEM41A (UniProt Q96HV5),inactive: 0.036,inactive: 0.035,inactive: -0.05,inactive: -0.055,,inactive: 0.165,inactive: -0.049,,inactive: 0,inactive: 0.01

# — the supplement of paper PMC10849652
